These are yes or no findings as the source states them, for the method shown. Binding seen in cells or lysates may run through a third protein. These calls come from enrichment with a bait or labelling near it, and not all partners need be listed. Sequences can lack the tags named with a protein.

Protein sequences, listed by entry. Tags and fused reporters are not part of them.
UniProt P08670: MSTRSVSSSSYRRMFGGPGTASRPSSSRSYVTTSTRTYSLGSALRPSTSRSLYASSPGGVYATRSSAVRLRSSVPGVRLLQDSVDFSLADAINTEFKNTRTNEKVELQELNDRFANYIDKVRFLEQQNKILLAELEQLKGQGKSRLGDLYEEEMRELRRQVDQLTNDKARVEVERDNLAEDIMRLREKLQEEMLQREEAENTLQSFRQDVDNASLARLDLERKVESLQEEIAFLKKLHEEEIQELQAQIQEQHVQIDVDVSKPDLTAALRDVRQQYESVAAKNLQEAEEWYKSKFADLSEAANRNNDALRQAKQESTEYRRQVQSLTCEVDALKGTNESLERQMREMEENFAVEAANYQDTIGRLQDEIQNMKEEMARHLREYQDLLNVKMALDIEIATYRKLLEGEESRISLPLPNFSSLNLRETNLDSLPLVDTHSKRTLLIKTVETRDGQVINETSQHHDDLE

In the assay the target is T1, GORAB fused to the biotin ligase BirA (UniProt Q5T7V8).
T1 sequence: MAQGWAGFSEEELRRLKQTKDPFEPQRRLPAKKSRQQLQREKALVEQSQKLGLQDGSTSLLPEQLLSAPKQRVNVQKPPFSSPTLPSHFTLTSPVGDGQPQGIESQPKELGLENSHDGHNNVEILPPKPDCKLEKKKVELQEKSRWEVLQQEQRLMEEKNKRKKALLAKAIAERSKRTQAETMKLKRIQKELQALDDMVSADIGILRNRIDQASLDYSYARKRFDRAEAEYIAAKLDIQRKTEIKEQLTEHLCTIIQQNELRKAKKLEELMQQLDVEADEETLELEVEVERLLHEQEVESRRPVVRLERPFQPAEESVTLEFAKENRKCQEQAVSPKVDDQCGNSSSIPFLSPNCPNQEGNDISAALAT
The experiment in a line: proximity labelling.

Regarding vimentin (from UniProt P08670 1-466), the binding entry is “binds”.

B1: COPI subunit γ2-COP (protein, UniProt Q9UBF2 1-871)
chain: MIKKFDKKDEESGSGSNPFQHLEKSAVLQEARIFNETPINPRRCLHILTKILYLLNQGEHFGTTEATEAFFAMTRLFQSNDQTLRRMCYLTIKEMATISEDVIIVTSSLTKDMTGKEDVYRGPAIRALCRITDGTMLQAIERYMKQAIVDKVSSVSSSALVSSLHMMKISYDVVKRWINEAQEAASSDNIMVQYHALGVLYHLRKNDRLAVSKMLNKFTKSGLKSQFAYCMLIRIASRLLKETEDGHESPLFDFIESCLRNKHEMVIYEAASAIIHLPNCTARELAPAVSVLQLFCSSPKPALRYAAVRTLNKVAMKHPSAVTACNLDLENLITDSNRSIATLAITTLLKTGSESSVDRLMKQISSFVSEISDEFKVVVVQAISALCQKYPRKHSVMMTFLSNMLRDDGGFEYKRAIVDCIISIVEENPESKEAGLAHLCEFIEDCEHTVLATKILHLLGKEGPRTPVPSKYIRFIFNRVVLENEAVRAAAVSALAKFGAQNESLLPSILVLLQRCMMDTDDEVRDRATFYLNVLQQRQMALNATYIFNGLTVSVPGMEKALHQYTLEPSEKPFDMKSIPLAMAPVFEQKAEITLVATKPEKLAPSRQDIFQEQLAAIPEFLNIGPLFKSSEPVQLTEAETEYFVRCIKHMFTNHIVFQFDCTNTLNDQLLEKVTVQMEPSDSYEVLSCIPAPSLPYNQPGICYTLVRLPDDDPTAVAGSFSCTMKFTVRDCDPNTGVPDEDGYDDEYVLEDLEVTVSDHIQKVLKPNFAAAWEEVGDTFEKEETFALSSTKTLEEAVNNIITFLGMQPCERSDKVPENKNSHSLYLAGIFRGGYDLLVRSRLALADGVTMQVTVRSKERTPVDVILASVG
Take B1: the binding entry was “binds”.

B2: Scyl1 (protein, UniProt Q96KG9 1-808)
chain: MWFFARDPVRDFPFELIPEPPEGGLPGPWALHRGRKKATGSPVSIFVYDVKPGAEEQTQVAKAAFKRFKTLRHPNILAYIDGLETEKCLHVVTEAVTPLGIYLKARVEAGGLKELEISWGLHQIVKALSFLVNDCSLIHNNVCMAAVFVDRAGEWKLGGLDYMYSAQGNGGGPPRKGIPELEQYDPPELADSSGRVVREKWSADMWRLGCLIWEVFNGPLPRAAALRNPGKIPKTLVPHYCELVGANPKVRPNPARFLQNCRAPGGFMSNRFVETNLFLEEIQIKEPAEKQKFFQELSKSLDAFPEDFCRHKVLPQLLTAFEFGNAGAVVLTPLFKVGKFLSAEEYQQKIIPVVVKMFSSTDRAMRIRLLQQMEQFIQYLDEPTVNTQIFPHVVHGFLDTNPAIREQTVKSMLLLAPKLNEANLNVELMKHFARLQAKDEQGPIRCNTTVCLGKIGSYLSASTRHRVLTSAFSRATRDPFAPSRVAGVLGFAATHNLYSMNDCAQKILPVLCGLTVDPEKSVRDQAFKAIRSFLSKLESVSEDPTQLEEVEKDVHAASSPGMGGAAASWAGWAVTGVSSLTSKLIRSHPTTAPTETNIPQRPTPEGVPAPAPTPVPATPTTSGHWETQEEDKDTAEDSSTADRWDDEDWGSLEQEAESVLAQQDDWSTGGQVSRASQVSNSDHKSSKSPESDWSSWEAEGSWEQGWQEPSSQEPPPDGTRLASEYNWGGPESSDKGDPFATLSARPSTQPRPDSWGEDNWEGLETDSRQVKAELARKKREERRREMEAKRAERKVAKGPMKLGARKLD
For the molecule B2, the binding entry is recorded as “binds”.

These data come from article doi:10.1101/2022.08.25.505293.
